Measurements: publication PMC4465499
No constants are given. Whether binding was seen depends on the method and setting. Binding seen in cells or lysates may run through a third protein.

Biological target: BRCA1 of HCC1937 cells (homozygous for a frameshift mutation in BRCA1) (human (endogenous in HCC1937)) (UniProt P38398)
Assay: co-IP; endogenous BRCA1 precipitated from total cell extract (MCF-7 or HCC1937) with anti-BRCA1 monoclonal antibody overnight, Protein A/G PLUS-Agarose 2 h at 4 C, three washes in lysis buffer (20 mM NaCl, 30 mM KCl, 0.1% DTT, 0.5% Triton X-100); immunoblot with anti-ATF1

- binding: no binding
B1: cyclic AMP-dependent transcription factor ATF1 (protein, UniProt P18846 1-271)
chain: MEDSHKSTTSETAPQPGSAVQGAHISHIAQQVSSLSESEESQDSSDSIGSSQKAHGILARRPSYRKILKDLSSEDTRGRKGDGENSGVSAAVTSMSVPTPIYQTSSGQYIAIAPNGALQLASPGTDGVQGLQTLTMTNSGSTQQGTTILQYAQTSDGQQILVPSNQVVVQTASGDMQTYQIRTTPSATSLPQTVVMTSPVTLTSQTTKTDDPQLKREIRLMKNREAARECRRKKKEYVKCLENRVAVLENQNKTLIEELKTLKDLYSNKSV
